According to patent US6506901B2, “Substituted 2-(S)-hydroxy-3-(piperidin-4-yl-methylamino)-propyl ethers and substituted 2-aryl-2-(R)-hydroxy-1-(piperidin-4-yl-methyl)-ethylamine β-3 adrenergic receptor agonists” (Wyeth, priority 2000, dated 2003):
For some assays here: At least one read-out could not be matched to a standard name with certainty. For some assays here: At least one structure is not confirmed: it was looked up by name or label, or the drawing left a doubt.

Sequences of proteins named here, by UniProt entry; tags and fusion partners are left off. A change or cut given only in a name is not applied to a line headed by its entry.
UniProt P13945: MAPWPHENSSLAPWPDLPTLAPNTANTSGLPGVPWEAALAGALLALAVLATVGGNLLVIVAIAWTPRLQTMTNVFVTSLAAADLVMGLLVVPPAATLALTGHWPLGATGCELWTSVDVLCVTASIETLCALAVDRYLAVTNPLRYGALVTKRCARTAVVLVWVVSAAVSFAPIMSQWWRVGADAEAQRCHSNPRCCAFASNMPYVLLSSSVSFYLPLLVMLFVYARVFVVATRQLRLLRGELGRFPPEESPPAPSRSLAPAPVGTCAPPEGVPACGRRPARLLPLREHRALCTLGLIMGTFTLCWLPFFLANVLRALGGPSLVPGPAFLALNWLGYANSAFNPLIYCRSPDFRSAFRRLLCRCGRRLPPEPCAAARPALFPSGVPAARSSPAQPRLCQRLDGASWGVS

Key:
β3 human transgenic mice = assay: Thermogenesis (Oxymax indirect calorimeter) in β3 transgenic (Tg) mice; type: in vivo, mice (FVB); settings: mouse type hetero, IP 10 mg/kg, percent increase in thermogenesis over baseline
Excerpt: Evaluation in β3 Knockout(KO) and β3 Transgenic(Tg) Mice: The ability of compounds of this invention to treat or inhibit disorders related to insulin resistance or hyperglycemia was also confirmed with representative compounds of this invention in an in vivo standard pharmacological test procedure which compared thermogenesis in transgenic mice (Tg mice) and β3-knockout mice (KO mice).
β3-Adrenergic receptor knockout mice and β3 human transgenic mice are created on an inbred FVB background (Susulic, V. S., et.al., J. Biol. Chem., 1995, 270 (49), 29483-29492). Female FVB β3 transgenic and β3 knockout mice were used to determine in vivo activity and selectivity of β3 agonists. […] These compounds were also selective in being 100-fold less responsive and partial agonists when tested in β1 and β2 transfected CHO cells. Compounds were tested for increased thermogenesis using the Oxymax indirect calorimeter (Columbus Instruments, Columbus, Ohio). Fed animals were placed in chambers for 3 hours to obtain baseline O2 and CO2 values. […] The relative gas content of each chamber was sampled and recorded at 10 to 12 minute intervals. For each sample, energy expenditure values were calculated by the Oxymax and expressed as kcal/hr. […] The combined mean percent increase, standard deviation, and standard error of the mean for each chamber is calculated. […]

human β3 receptors = molecular target: T1, human β3 receptors (Homo sapiens, UniProt P13945); assay: cAMP response (SPA) in CHO cells expressing cloned human β3 adrenergic receptor; type: cell-based; settings: maximal response compared to the maximal response of isoproterenol at 10^−5 M
T1 construct: Full length β3 AR clones (402 amino acids) containing the last 6 amino acids of hβ3—AR; expressed in transfected cells; host or cells: CHO cells
Experimental: Binding to the receptors was measured in Chinese Hamster ovary (CHO) cells that were transfected with adrenergic receptors.
Cloning of Human β3-AR Genomic DNA: cDNA was constructed by ligating four polymerase chain reaction (PCR) products using the following primers: an ATG-NarI fragment, sense primer 5′-[…]3′ and anti-sense primer 5′ […]3′; a NarI-AccI fragment, 5′ […]3′ as sense and 5′ […]3′ as anti-sense primer; an AccIi-StyI fragment, sense primer 5′ […]3′ and anti-sense primer 5′ […]3′ and a StyI-TAG fragment, with sense primer 5′ […]3′ and anti-sense primer 5′ […]3′. The corresponding primer sequences are described in Mantzoros, C. […] The four fragments are ligated into a pUC 18 plasmid (Gibco-BRL) and sequenced.
CHO cells were grown in 24-well tissue culture plates in Dulbecco's Modified Eagle Media with 10% fetal bovine serum, MEM non-essential amino acids, Penicillin-Streptompycin and Geneticin. […] Isoproterenol (10^−5 M) was used as an internal standard for comparison of activity. […] The plates, containing the cells and neutralized media, were stored at −20 degrees celsius until ready to test for cAMP using the SPA test kit (Amersham).
Data Analysis and Results: Data collected from the SPA test procedure were analyzed as per cent of the maximal isoproterenol response at 10^−5 M. Activity curves were plotted using the SAS statistical and graphics software.

Row | SMILES | Thermogenesis, Transgenic Mice, IP % (β3 human transgenic mice) | IA(β3) (human β3 receptors)
1 | CCCCCCCCNC(=O)Nc1ccc(S(=O)(=O)N2CCC(CNC[C@H](O)COc3ccc(O)cc3)CC2)cc1 [Example 69, 1-[4-(4-{[(2S)-2-Hydroxy-3-(4-hydroxy-phenoxy)-propylamino]-methyl}-piperidine-1-sulfonyl)-phenyl]-3-octyl-urea] | 30% | –
2 | CS(=O)(=O)Nc1cc([C@@H](O)CNCC2CCN(S(=O)(=O)c3ccc(NC(=O)NCc4ccc(OCC(=O)O)cc4F)cc3)CC2)ccc1O [Example 89, [3-Fluoro-4-[[[[[4-[[4-[[[(R)-2-hydroxy-2-[4-hydroxy-3-[(methylsulfonyl)amino]phenyl]-ethy]amino]-methyl]-1-piperidinyl]sulfonyl]phenyl]amino]carbonyl]-amino]-methyl]phenoxy]acetic Acid] | – | 1
